Experimental data from publication PMC8660638.
These are yes or no findings as the source states them, for the method shown. Some results given as binding are weak or reduced against the parent protein; the word gives no strength.

Experiments:
Test in all cases: cryo-EM structure; Pol I EC: purified Pol I at 0.7 mg/mL with annealed DNA–RNA scaffold in 1.5 molar excess; EM buffer 15 mM HEPES pH 7.5, 80 mM (NH4)2SO4, 5 mM MgCl2, 10 mM DTT; 2.7 Å; both purified
RPA49 (human) = RPA49 (human) (UniProt Q9GZS1)
RPA1 (human) = RPA1 (human) (UniProt O95602)
RPA2 (human) = RPA2 (human) (UniProt Q9H9Y6)

Row | binding (RPA49 (human)) | binding (RPA1 (human)) | binding (RPA2 (human)) | Substance
1 | binds | – | – | RPA34 (from UniProt O15446 1-510)
2 | – | binds | binds | RPA49 (from UniProt Q9GZS1 1-419)
